Experimental data published in PubChem BioAssay AID1487 (National Center for Advancing Translational Sciences (NCATS), 2009).
Some of the results follow. Further columns of the screen follow, without active or inactive calls. Most of these compounds were active or inconclusive in the main read-out, so they are no random draw. Potencies come from curve fits of mixed quality, noted in brackets.

Test: qHTS Assay for Modulators of Lamin A Splicing
Settings: HeLa LMNA splicing GFP/RFP minigene ratio, 48 h
Outline: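 S3 HeLa stable clones carrying a lamin A-EGFP splicing minigene plus DsRed2 were seeded at 600 cells/well in Opti-MEM with 2% FBS, pin-dosed and incubated 48 h at 37°C. Acumen cytometry (488 nm) gave the GFP/RFP total-intensity ratio.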

[1] = measured here: GFP splicing reporter channel
[2] = measured here: RFP viability control channel

SMILES	AC50 [1]	AC50 [2]
Cn1cnc([N+](=O)[O-])c1S(=O)(=O)c1ccc(Cl)cc1	25.1 µM [falling, single point]	
CC1(C)N=C(SCC(=O)Nc2ccc(Cl)cc2Cl)C(c2ccccc2)=N1		17.8 µM [rising, single point]
C=CCn1c(CC(=O)OC)csc1=Nc1ccc(C(C)=O)cc1		35.5 µM [rising, single point]
CC1CCCCC1NC(=O)/C(C#N)=C/C=C/c1ccccc1[N+](=O)[O-] (stereo unspecified)	8.91 µM [falling, partial curve, poor fit]	
COc1ccccc1CNC(=O)CN(c1ccc(C)cc1)S(=O)(=O)c1c(C)nn(C)c1C	1 µM [rising, full curve, poor fit]	3.98 µM [rising, partial curve]
O=C1N=C(N2CCOCC2)S/C1=C/c1ccc(-c2ccc(F)cc2)o1		12.6 µM [rising, single point]
CCOc1ccc(C(=O)NC(=S)NCc2cccnc2)cc1[N+](=O)[O-]	11.2 µM [rising, partial curve, poor fit]	11.2 µM [rising, partial curve]
CN1CCc2cc3c(c4c2C1CC41CCC(=NO)CC1)OCO3 (stereo unspecified)	35.5 µM [rising, single point]	
CC(C)c1ccc(NC(=O)C2C3C=CC4(CN(Cc5cccnc5)C(=O)C24)O3)cc1 (stereo unspecified)	0.00316 µM [rising, full curve, poor fit]	0.0112 µM [rising, full curve, poor fit]
Cc1ccc(Nc2nc3nonc3[nH]c2=O)cc1		31.6 µM [rising, single point]
Cc1ccc(NC(=O)c2oc3ccc(S(=O)(=O)N4CCC5(CC4)OCCO5)cc3c2C)cc1Cl	0.00631 µM [falling, full curve, poor fit]	0.00447 µM [falling, full curve, poor fit]
O=C(CN1C(=O)CCSc2ccc(S(=O)(=O)N3CCCC3)cc21)Nc1cccc(F)c1		14.1 µM [rising, single point]
COc1cccc(CNC(=O)CNC(=S)N(Cc2ccccc2)Cc2ccccc2F)c1		35.5 µM [rising, single point]
CCOC(=O)Oc1ccc2c(=O)c(Oc3cc(C)cc(C)c3)coc2c1		31.6 µM [rising, single point]
COc1ccc2c(c1)[N+](C)(C)C(C)(C)C=C2C		3.55 µM [falling, partial curve, poor fit]
CCS(=O)(=O)N1CCC(C(=O)c2ccc(Cl)cc2)CC1		22.4 µM [rising, single point]
COc1ccc(NS(=O)(=O)c2ccc(NC(=O)c3ccccc3Br)cc2)nn1	0.02 µM [rising, full curve, poor fit]	
CN(C)c1ccc(-c2nnc(SCC3CCCO3)n2C)cc1 (stereo unspecified)	31.6 µM [falling, single point]	
COc1ccc(Cl)cc1N1CCN(CCNC(=O)Nc2ccccc2C)CC1		35.5 µM [rising, single point]
N#Cc1cc(-c2ccccc2)nnc1Oc1ccccc1Cl	4.47 µM [rising, partial curve]	6.31 µM [rising, partial curve]
COc1ccc(C(=O)NCCc2cc3c(OC)ccc(OC)c3[nH]c2=O)cc1OC	0.0562 µM [rising, partial curve]	0.00891 µM [rising, partial curve, poor fit]
COc1ccc(Cl)cc1NC(=O)c1cnc2sc(N3CCOCC3)nn2c1=O	0.447 µM [falling, full curve, poor fit]	0.501 µM [falling, full curve, poor fit]
CC(C)c1ccccc1-n1c(SCC(=O)N2CCN(c3ccccc3)CC2)nnc1-c1cccnc1	35.5 µM [falling, single point]	12.6 µM [falling, partial curve]
CN1CCN(CCNC(=O)c2cnn(-c3ccc(Cl)cc3)c2C2CCN(C(=O)OC(C)(C)C)CC2)CC1		0.501 µM [rising, full curve, poor fit]
COC(=O)c1ccc(NC(=O)CN2CCN(c3ccccc3C)CC2)cc1		15.8 µM [rising, single point]
CCN(C(=O)C1CCN(S(=O)(=O)c2c(C)noc2/C=C/c2ccc(C)cc2)CC1)c1cccc(C)c1		7.08 µM [falling, partial curve, poor fit]
CN(C(=O)c1cnc(N2CCN(c3ncccn3)CC2)c2ccccc12)c1ccc(Cl)cc1	1.41 µM [falling, partial curve]	1.26 µM [falling, partial curve]

Structural class: the entries above containing an aryl methoxy group (seven)
SMILES	AC50 [1]	AC50 [2]
COc1ccccc1CNC(=O)CN(c1ccc(C)cc1)S(=O)(=O)c1c(C)nn(C)c1C	1 µM [rising, full curve, poor fit]	3.98 µM [rising, partial curve]
COc1cccc(CNC(=O)CNC(=S)N(Cc2ccccc2)Cc2ccccc2F)c1		35.5 µM [rising, single point]
COc1ccc2c(c1)[N+](C)(C)C(C)(C)C=C2C		3.55 µM [falling, partial curve, poor fit]
COc1ccc(NS(=O)(=O)c2ccc(NC(=O)c3ccccc3Br)cc2)nn1	0.02 µM [rising, full curve, poor fit]	
COc1ccc(Cl)cc1N1CCN(CCNC(=O)Nc2ccccc2C)CC1		35.5 µM [rising, single point]
COc1ccc(C(=O)NCCc2cc3c(OC)ccc(OC)c3[nH]c2=O)cc1OC	0.0562 µM [rising, partial curve]	0.00891 µM [rising, partial curve, poor fit]
COc1ccc(Cl)cc1NC(=O)c1cnc2sc(N3CCOCC3)nn2c1=O	0.447 µM [falling, full curve, poor fit]	0.501 µM [falling, full curve, poor fit]
